# Experimental data reported in US20170306047A1 (KOREA RESEARCH INSTITUTE OF BIOSCIENCE AND BIOTECHNOLOGY, published 2017).
# Columns and labels:
# Flag-tagged RACK1 = Flag-tagged RACK1 (UniProt P63244 1-317); test: anti-FLAG immunoprecipitation, Western blot (FIG. 20A legend)
# Method: Specifically, to check interaction between the NDRG3 and RACK1, HeLa cells were transfected with NDRG3 and/or Flag-tagged RACK1 expression vectors, as described in Example 3, treated with 20 μM MG132 for 8 hours under a normoxic condition (21% O₂), cultured, collected, lysed, and then immunoprecipitated with anti-FLAG M2 beads. Thereafter, to check the presence of the NDRG3 bound to RACK-1, Western blotting was performed using an anti-NDRG3 antibody (FIG. 20A).
# Flag-tagged PHD2 [1] = biological target: T1, Flag-tagged PHD2 (UniProt Q9GZT9 1-426); test: anti-FLAG immunoprecipitation from HeLa cells co-transfected with NDRG3 and Flag-tagged PHD family members, anti-NDRG3 Western blot (FIG. 5B)
# T1 construct: Expressed in transfected MCF-7, HeLa or HEK293T cells; also called PHD2-Flag; prolyl-hydroxylase domain 2; not shown: Flag tag
# Method: Also, to check the interaction between the PHD family and the NDRG3 protein, Flag-tagged PHD1, Flag-tagged PHD2, Flag-tagged PHD3, Flag-tagged P4HTM, a Flag-tagged P4HA1 expression vector, and an NDRG3 expression vector were constructed, and HeLa cells were transfected with the NDRG3 and the Flag-tagged PHD family, respectively, using the method described in Example 3. Therefore, the HeLa cells were treated with 20 μM MG132 for 8 hours under normal conditions, harvested, and lysed. Subsequently, the cell lysate was immunoprecipitated with anti-FLAG M2 beads, and was then subjected to Western blotting using the anti-NDRG3 antibody (FIG. 5B).
# Flag-tagged PHD2 [2] = biological target: T1, Flag-tagged PHD2; test: co-immunoprecipitation with anti-Myc gel from HEK293T cells, anti-Flag Western blot
# Method: Thereafter, HEK293T cells (ATCC) were transfected with each of the Myc-tagged NDRG3 variants, the Flag-tagged PHD2, and the HA-tagged VHL construct at the same time, as described in Example 3, and the transformed HEK293T cells were treated with 20 μM MG132 for 8 hours, and then lysed. The cell lysate was immunoprecipitated using an anti-Myc affinity gel (Sigma), and then subjected to Western blotting using the anti-Flag, anti-HA and anti-Myc antibodies as primary antibodies (FIG. 6B).
binding result (Flag-tagged RACK1),binding result (Flag-tagged PHD2 [1]),binding result (Flag-tagged PHD2 [2]),Binder
binds,binds,,"N-myc downstream-regulated gene 3 (NDRG3) protein (other, Untagged NDRG3 in cell lysates; also called human NDRG3) MDELQDVQLTEIKPLLNDKNGTRNFQDFDCQEHDIETTHGVVHVTIRGLPKGNRPVILTYHDIGLNHKSCFNAFFNFEDMQEITQHFAVCHVDAPGQQEGAPSFPTGYQYPTMDELAEMLPPVLTHLSLKSIIGIGVGAGAYILSRFALNHPELVEGLVLINVDPCAKGWIDWAASKLSGLTTNVVDIILAHHFGQEELQANLDLIQTYRMHIAQDINQDNLQLFLNSYNGRRDLEIERPILGQNDNKSKTLKCSTLLVVGDNSPAVEAVVECNSRLNPINTTLLKMADCGGLPQVVQPGKLTEAFKYFLQGMGYIPSASMTRLARSRTHSTSSSLGSGESPFSRSVTSNQSDGTQESCESPDVLDRHQTMEVSC"
,,no binding,"Myc-tagged NDRG3 (N66D) variant (other, Expressed in transfected HEK293T or HeLa cells and tested in cell lysates; also called NDRG3 (N66D)-Myc; Myc-NDRG3 (N66D); not shown: Myc tag) MDELQDVQLTEIKPLLNDKNGTRNFQDFDCQEHDIETTHGVVHVTIRGLPKGNRPVILTYHDIGLDHKSCFNAFFNFEDMQEITQHFAVCHVDAPGQQEGAPSFPTGYQYPTMDELAEMLPPVLTHLSLKSIIGIGVGAGAYILSRFALNHPELVEGLVLINVDPCAKGWIDWAASKLSGLTTNVVDIILAHHFGQEELQANLDLIQTYRMHIAQDINQDNLQLFLNSYNGRRDLEIERPILGQNDNKSKTLKCSTLLVVGDNSPAVEAVVECNSRLNPINTTLLKMADCGGLPQVVQPGKLTEAFKYFLQGMGYIPSASMTRLARSRTHSTSSSLGSGESPFSRSVTSNQSDGTQESCESPDVLDRHQTMEVSC"
,,no binding,"Myc-tagged NDRG3 (R47D) variant (other, Expressed in HEK293T cells together with Flag-PHD2 and HA-VHL; not shown: Myc tag) MDELQDVQLTEIKPLLNDKNGTRNFQDFDCQEHDIETTHGVVHVTIDGLPKGNRPVILTYHDIGLNHKSCFNAFFNFEDMQEITQHFAVCHVDAPGQQEGAPSFPTGYQYPTMDELAEMLPPVLTHLSLKSIIGIGVGAGAYILSRFALNHPELVEGLVLINVDPCAKGWIDWAASKLSGLTTNVVDIILAHHFGQEELQANLDLIQTYRMHIAQDINQDNLQLFLNSYNGRRDLEIERPILGQNDNKSKTLKCSTLLVVGDNSPAVEAVVECNSRLNPINTTLLKMADCGGLPQVVQPGKLTEAFKYFLQGMGYIPSASMTRLARSRTHSTSSSLGSGESPFSRSVTSNQSDGTQESCESPDVLDRHQTMEVSC"
